Assay [1] addresses T1, FK506-binding protein 51 (endogenous) (human (endogenous in HEK293, MDA-MB-231, U2OS)) (UniProt Q13451).
T1 sequence: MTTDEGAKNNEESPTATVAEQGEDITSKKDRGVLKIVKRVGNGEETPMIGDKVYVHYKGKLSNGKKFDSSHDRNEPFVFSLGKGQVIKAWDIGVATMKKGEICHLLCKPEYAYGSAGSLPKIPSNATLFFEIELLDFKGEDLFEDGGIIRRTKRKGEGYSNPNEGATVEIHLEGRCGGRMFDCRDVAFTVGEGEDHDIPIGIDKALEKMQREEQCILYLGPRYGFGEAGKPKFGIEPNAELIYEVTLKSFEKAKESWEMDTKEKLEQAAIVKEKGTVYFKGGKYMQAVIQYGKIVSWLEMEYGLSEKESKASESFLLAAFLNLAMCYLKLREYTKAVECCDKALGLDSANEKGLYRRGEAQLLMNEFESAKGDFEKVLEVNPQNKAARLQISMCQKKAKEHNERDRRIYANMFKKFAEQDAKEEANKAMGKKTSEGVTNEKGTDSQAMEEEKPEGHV
The assay is described as follows: co-IP; endogenous proteins of MDA-MB-231 lysates; IP with anti-SRMS, anti-FKBP51 or anti-Beclin 1, western blot; parental vs SRMS knockout cells, DMSO vs 0.5 uM ibrutinib for 4 h. In general terms: In western blotting, separated proteins are transferred to a membrane and probed.

Amino acid sequences for entries named in this document (tags omitted). A change or cut given only in a name is not applied to a line headed by its entry. Residues count along the entry.
UniProt Q9H3Y6: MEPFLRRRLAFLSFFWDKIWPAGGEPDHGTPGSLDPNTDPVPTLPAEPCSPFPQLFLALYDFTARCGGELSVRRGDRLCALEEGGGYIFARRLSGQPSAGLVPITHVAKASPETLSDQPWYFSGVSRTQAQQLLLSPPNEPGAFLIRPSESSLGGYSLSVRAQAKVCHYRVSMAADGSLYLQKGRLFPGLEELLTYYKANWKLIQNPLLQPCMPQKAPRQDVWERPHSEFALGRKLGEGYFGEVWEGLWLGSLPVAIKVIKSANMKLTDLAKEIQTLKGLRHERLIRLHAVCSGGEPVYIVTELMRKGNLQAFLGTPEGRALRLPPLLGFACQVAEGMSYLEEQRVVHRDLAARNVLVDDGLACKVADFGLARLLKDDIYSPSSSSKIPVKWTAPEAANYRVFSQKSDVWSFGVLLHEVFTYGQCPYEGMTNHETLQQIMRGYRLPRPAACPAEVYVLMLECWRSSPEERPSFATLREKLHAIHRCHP
Myc-SRMS amino acids 213-488: residues 213-488 of Q9H3Y6
UniProt P31749: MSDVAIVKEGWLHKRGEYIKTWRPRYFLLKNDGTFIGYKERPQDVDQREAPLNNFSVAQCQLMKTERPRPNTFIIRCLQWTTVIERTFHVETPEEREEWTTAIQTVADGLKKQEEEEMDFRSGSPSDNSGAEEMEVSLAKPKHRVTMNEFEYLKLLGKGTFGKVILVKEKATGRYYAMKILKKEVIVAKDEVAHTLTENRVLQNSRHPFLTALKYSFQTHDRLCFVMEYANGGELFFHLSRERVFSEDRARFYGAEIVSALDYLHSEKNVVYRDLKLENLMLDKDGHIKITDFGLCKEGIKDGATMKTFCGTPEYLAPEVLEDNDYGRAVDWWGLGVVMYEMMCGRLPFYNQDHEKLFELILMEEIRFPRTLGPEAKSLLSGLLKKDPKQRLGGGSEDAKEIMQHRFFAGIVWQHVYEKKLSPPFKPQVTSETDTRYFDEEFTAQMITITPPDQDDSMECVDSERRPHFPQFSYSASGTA
UniProt O60346: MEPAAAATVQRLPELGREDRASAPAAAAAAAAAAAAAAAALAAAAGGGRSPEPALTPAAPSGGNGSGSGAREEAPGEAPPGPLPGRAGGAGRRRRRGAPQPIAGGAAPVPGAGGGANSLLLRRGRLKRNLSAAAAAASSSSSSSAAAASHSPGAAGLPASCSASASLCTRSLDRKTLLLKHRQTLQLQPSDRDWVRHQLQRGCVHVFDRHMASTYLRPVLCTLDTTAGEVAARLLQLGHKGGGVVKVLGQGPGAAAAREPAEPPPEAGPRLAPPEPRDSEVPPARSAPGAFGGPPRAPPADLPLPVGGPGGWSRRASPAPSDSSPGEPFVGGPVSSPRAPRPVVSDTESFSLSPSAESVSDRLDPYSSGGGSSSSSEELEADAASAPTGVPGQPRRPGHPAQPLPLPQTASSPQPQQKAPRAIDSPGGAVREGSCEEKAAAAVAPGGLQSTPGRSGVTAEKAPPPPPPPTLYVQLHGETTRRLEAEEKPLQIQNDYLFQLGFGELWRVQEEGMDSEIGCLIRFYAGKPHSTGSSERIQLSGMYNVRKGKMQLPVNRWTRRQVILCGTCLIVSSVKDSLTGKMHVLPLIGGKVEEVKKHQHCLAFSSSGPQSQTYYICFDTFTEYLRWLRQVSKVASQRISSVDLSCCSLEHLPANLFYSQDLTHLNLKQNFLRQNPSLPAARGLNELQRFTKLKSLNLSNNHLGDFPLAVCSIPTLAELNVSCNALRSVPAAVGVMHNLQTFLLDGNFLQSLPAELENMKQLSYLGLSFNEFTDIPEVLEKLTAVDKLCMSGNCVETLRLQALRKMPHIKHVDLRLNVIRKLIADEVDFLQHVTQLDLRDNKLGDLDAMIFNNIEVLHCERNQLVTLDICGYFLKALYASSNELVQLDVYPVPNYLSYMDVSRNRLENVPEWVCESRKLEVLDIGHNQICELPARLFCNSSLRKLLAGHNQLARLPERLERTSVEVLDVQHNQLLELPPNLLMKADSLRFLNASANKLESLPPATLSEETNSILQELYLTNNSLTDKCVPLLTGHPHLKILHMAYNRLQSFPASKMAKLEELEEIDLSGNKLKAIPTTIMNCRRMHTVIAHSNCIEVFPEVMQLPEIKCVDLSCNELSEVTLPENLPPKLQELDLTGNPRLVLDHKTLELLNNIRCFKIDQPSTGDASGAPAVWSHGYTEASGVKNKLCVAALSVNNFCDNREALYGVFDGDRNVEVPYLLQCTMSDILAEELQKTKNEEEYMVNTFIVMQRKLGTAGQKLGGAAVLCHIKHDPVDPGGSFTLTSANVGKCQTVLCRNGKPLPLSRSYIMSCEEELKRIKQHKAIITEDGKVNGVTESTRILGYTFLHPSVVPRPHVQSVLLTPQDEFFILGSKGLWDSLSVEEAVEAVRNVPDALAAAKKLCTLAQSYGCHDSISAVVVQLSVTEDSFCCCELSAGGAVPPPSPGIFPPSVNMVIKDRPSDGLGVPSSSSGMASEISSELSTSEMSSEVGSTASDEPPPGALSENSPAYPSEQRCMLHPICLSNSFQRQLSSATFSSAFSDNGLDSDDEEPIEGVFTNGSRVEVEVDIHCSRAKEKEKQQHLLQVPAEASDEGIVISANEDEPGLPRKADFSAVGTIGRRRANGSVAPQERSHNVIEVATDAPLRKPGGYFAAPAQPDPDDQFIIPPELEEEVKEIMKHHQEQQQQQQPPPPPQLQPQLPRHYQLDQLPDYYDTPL

Assay [2] deals with T1, FK506-binding protein 51 (endogenous) (human (endogenous in HEK293, MDA-MB-231, U2OS)). The assay is described as follows: co-IP; endogenous proteins of SRMS knockout U2OS cells expressing WT SRMS or SRMS(K258A); IP with anti-FKBP51 or IgG control, western blot.
The target of assay [3] is T2, Flag-FKBP51 (UniProt Q13451).
T2 sequence: T1 sequence
The assay is described as follows: co-IP; FKBP51 transfected with PHLPP, with or without SRMS, in 293T cells; IP by anti-Flag, western blot.

The target of assay [4] is Myc-SRMS K258A (human) (UniProt Q9H3Y6). Briefly: co-IP; Flag-FKBP51 co-transfected with Myc-SRMS or Myc-SRMS K258A in HeLa cells; IP by anti-Myc, western blot; lysis in 50 mM Tris-HCl pH 8.0, 150 mM NaCl, 0.5% NP-40.
In assay [5] the target is Myc-SRMS amino acids 213-488 (human) (UniProt Q9H3Y6). The assay is described as follows: co-IP; truncated Myc-SRMS constructs co-transfected with Flag-FKBP51 in HEK293FT cells; IP with anti-Myc, western blot.

These are yes or no findings as the source states them, for the method shown. In cells and extracts the contact can be indirect. Some results given as binding are weak or reduced against the parent protein; the word gives no strength. For some of these results: Sequences can lack the tags named with a protein.

For “AKT1 (endogenous) (from UniProt P31749 1-480) (enzyme)”, the binding entry in assay [1] and in assay [2] was “binds” each time.

On to “PHLPP1 (ectopic) (from UniProt O60346 1-1717) (enzyme)”, for which the binding result in assay [3] is “binds”.

Take “PHLPP1 (endogenous) (from UniProt O60346 1-1717) (enzyme)”: the binding entry in assay [1] and in assay [2] was “binds” throughout.

B1: Flag-FKBP51 (protein, UniProt Q13451 1-457)
chain: T1 sequence
B1: the binding result in assay [4] and in assay [5] was “binds” throughout.
